For at least one entry, the source does not settle the construct or the ends of the probe. Negatives hold for the conditions tested.
Tests used:
casein = assay: binding assay; conditions: specificity control, 50 ug/mL protein, 200 nM aptamer on magnetic beads; text states good specificity; purified native protein; label: 5'-FAM (fluorescence assay); single-stranded DNA
IgG = assay: binding assay; conditions: specificity control, 50 ug/mL protein, 200 nM aptamer on magnetic beads; text states good specificity; purified native protein; label: 5'-FAM (fluorescence assay); single-stranded DNA

Sequence: AGCAGCACAGAGGTCAGATGTTCGGCCTTTGCGTTAACGAACTTCTAGCTATGCGGCGTACCTATGCGTGCTACCGTGAA [Lg-18]
- binding result (casein): no binding
- binding result (IgG): no binding

From patent US20220340905, “NUCLEIC ACID APTAMER SPECIFICALLY RECOGNIZING B-LACTOGLOBULIN AND USE THEREOF” (JIANGNAN UNIVERSITY, published 2022)
